# Reference: the supplement of paper PMC12872613
# Counter-ions that a name gives are not always drawn. This is one part of the list. No stated cut-off is given here; in the data, active = 0.7 or more and inactive = the rest. Single values are uncertain, as repeats are few or missing.
# System: MiaPaCa-2 CLSA-25
# Test: cell death relative to DMSO vehicle (fraction); higher = more cytotoxic
# Conditions: 5 µM; treatment time 48 h; medium cystine 25 µM
row,SMILES,cell death
1,Cc1ncc([N+](=O)[O-])n1CCO [Metronidazole],inactive: 0.0936
2,CCCCc1nc(Cl)c(CO)n1Cc1ccc(-c2ccccc2-c2nnn[nH]2)cc1 [Losartan],inactive: 0.127
3,CCCCC(=O)O[C@]1(C(=O)CO)[C@@H](C)C[C@H]2[C@@H]3CCC4=CC(=O)C=C[C@]4(C)[C@@]3(F)[C@@H](O)C[C@@]21C [Betamethasone 17-valerate],inactive: 0.0104
4,NS(=O)(=O)c1ccc(S(=O)(=O)Nc2cccc3c(Cl)c[nH]c23)cc1 [Indisulam],inactive: 0.0136
5,"O=C(O)c1cc(O)cc(O)c1 [3,5-Dihydroxybenzoic acid]",inactive: 0.48
6,COc1ccccc1OCC(O)CN1CCN(CC(=O)Nc2c(C)cccc2C)CC1 (centres undefined) [Ranolazine dihydrochloride],inactive: 0.135
7,CC1(C)[C@@H](O[C@H]2O[C@H](C(=O)O)[C@@H](O)[C@H](O)[C@H]2O[C@@H]2O[C@H](C(=O)O)[C@@H](O)[C@H](O)[C@H]2O)CC[C@]2(C)[C@H]3C(=O)C=C4[C@@H]5C[C@@](C)(C(=O)O)CC[C@]5(C)CC[C@@]4(C)[C@]3(C)CC[C@@H]12 [Glycyrrhizin],inactive: 0.262
8,Cn1c(=O)c2[nH]cnc2n(C)c1=O [Aminophylline],inactive: 0.0242
9,COc1c(C)c2c(c(O)c1C/C=C(\C)CCC(=O)O)C(=O)OC2 [Mycophenolic acid],inactive: 0.106
10,"O=C(O)Cc1ccc(O)c(O)c1 [3,4-Dihydroxyphenylacetic acid]",inactive: 0.0383
11,C[N+](C)(C)CC(O)CC(=O)[O-] (racemic) [DL-Carnitine],inactive: 0.102
12,NC[C@@](O)(c1ccc(Cl)cc1)c1ccc(-c2cn[nH]c2)cc1,active: 0.82
13,CC(C)=CCC[C@](C)(O[C@@H]1O[C@H](CO)[C@@H](O)[C@H](O)[C@H]1O)[C@H]1CC[C@]2(C)[C@@H]1[C@H](O)C[C@@H]1[C@@]3(C)CC[C@H](O)C(C)(C)[C@@H]3[C@@H](O)C[C@]12C [Ginsenoside F1],inactive: 0.473
14,CC1(C)CC(=O)c2c(C(F)(F)F)nn(-c3ccc(C(N)=O)c(N[C@H]4CC[C@H](O)CC4)c3)c2C1,inactive: 0.411
15,Cn1c(=O)c2c(ncn2CC(=O)O)n(C)c1=O [Theophylline-7-acetic acid],inactive: 0.116
16,O=C1CCCC(=O)C1C(=O)c1ccc(C(F)(F)F)cc1[N+](=O)[O-] [Nitisinone],inactive: 0.057
17,NCCc1c[nH]c2ccccc12 [Tryptamine],inactive: 0.0704
18,O=C(c1ccc(OCCN2CCCCC2)cc1)c1c(-c2ccc(O)cc2)sc2cc(O)ccc12 [Raloxifene hydrochloride],inactive: 0.269
19,CC(=O)O[C@]1(C(C)=O)CC[C@H]2[C@@H]3C=C(C)C4=CC(=O)CC[C@]4(C)[C@H]3CC[C@@]21C [Megestrol acetate],inactive: -0.011
20,C/C=C/c1cc(OC)c(OC)cc1OC [alpha-Asarone],inactive: 0.202

row,SMILES,cell death
1,OCc1ccccc1 [Benzyl alcohol],inactive: 0.291
2,C[C@H](N[C@@H](CCc1ccccc1)C(=O)O)C(=O)N1CCC[C@H]1C(=O)O [Enalaprilat Dihydrate],inactive: -0.00803
3,Cn1c(=O)cc(N2CCC[C@@H](N)C2)n(Cc2ccccc2C#N)c1=O [Alogliptin Benzoate],inactive: 0.0524
4,O=C(/C=C/c1ccc(O)c(O)c1)O[C@@H]1C[C@](O)(C(=O)O)C[C@@H](O)[C@H]1O [Chlorogenic Acid],inactive: 0.0444
5,CN(Cc1cnc2nc(N)nc(N)c2n1)c1ccc(C(=O)N[C@@H](CCC(=O)O)C(=O)O)cc1 [Methotrexate],inactive: 0.358
6,O=C1C[C@@H](c2ccc(O)cc2)Oc2cc(O)cc(O)c21 [Naringenin],inactive: 0.0142
7,CCOC(=O)c1ccc(OC(=O)CCCCCNC(=N)N)cc1 [Gabexate mesylate],inactive: 0.0725
8,C[C@H](CCC(=O)O)[C@H]1CC[C@H]2[C@@H]3CC[C@@H]4C[C@H](O)CC[C@]4(C)[C@H]3CC[C@]12C [Lithocholic acid],inactive: 0.263
9,Cc1ccccc1C(=O)Nc1ccc(C(=O)N2CCCC(O)c3cc(Cl)ccc32)c(C)c1 (centres undefined) [Tolvaptan],inactive: 0.175
10,CN(C)C(=O)c1ccc(S(=O)(=O)c2ccc(NC(=O)[C@@](C)(O)C(F)(F)F)c(Cl)c2)cc1,inactive: 0.265
11,CC(/C=C1\SC(=S)N(CC(=O)O)C1=O)=C\c1ccccc1 [Epalrestat],inactive: 0.424
12,CC(=O)Oc1cc(C)c(OC(C)=O)c2ccccc12 [Menadiol Diacetate],inactive: 0.0859
13,CNC(=C[N+](=O)[O-])NCCSCc1ccc(CN(C)C)o1 [Ranitidine Hydrochloride],inactive: 0.0851
14,O[C@H]1[C@H](O)[C@@H](O)[C@H](O)[C@@H](O)[C@H]1O [Inositol],inactive: 0.072
15,CC(C)(C)C#Cc1cc(N(C(=O)[C@H]2CC[C@H](C)CC2)[C@H]2CC[C@H](O)CC2)c(C(=O)O)s1 [Lomibuvir],inactive: 0.187
16,COCCCOc1cc(C[C@@H](C[C@H](N)[C@@H](O)C[C@H](C(=O)NCC(C)(C)C(N)=O)C(C)C)C(C)C)ccc1OC [Aliskiren hemifumarate],inactive: 0.251
17,COC1=C2C[C@@H](C)C[C@H](OC)[C@H](O)[C@@H](C)/C=C(\C)[C@H](OC(N)=O)[C@@H](OC)/C=C\C=C(/C)C(=O)NC(=CC1=O)C2=O [Geldanamycin],inactive: 0.275
18,C[C@@]1(C(=O)O)CC[C@]2(C)CC[C@]3(C)C4=CC(=O)c5c(cc(O)c(O)c5C=O)[C@]4(C)CC[C@@]3(C)[C@@H]2C1 [Demethylzeylasteral],inactive: 0.608
19,OC[C@H]1O[C@@H](c2ccc(F)c(Cc3cc4ccccc4s3)c2)[C@H](O)[C@@H](O)[C@@H]1O [Ipragliflozin],inactive: 0.158
